# Several values for one entry are separate records, joined by “and”; a condition that tells them apart may be missing. Equal values may be shown once. Where a name gives a salt, the structure may show the parent alone. ± gives the standard deviation of the averaged measurements. Some of the results follow. Plates or batches differ in their baseline, so values are only roughly comparable.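 Primary human stellate myofibroblasts activated in culture; inactivation shown by regained lipid droplets. Readout: fraction of Hoechst-counted cells exceeding a per-plate Bodipy threshold, duplicate wells, each plate with DMSO negative and nortriptyline positive controls. Hits: control-normalized score beyond the plate's top-tenth-percentile nortriptyline wells, or among its three best wells. Final well concentrations unstated.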
# System: primary human hepatic stellate cells (donor 1)
# Test: percent Bodipy-positive cells; higher = more lipid droplet accumulation
# Conditions: 48 h
# [1] = library stock concentration: 10 mM
# [2] = library stock concentration: 80 uM
# [3] = library stock concentration: 400 uM
# [4] = library stock concentration: 3.33 mM
# [5] = library stock concentration: 1 mM
# [6] = library stock concentration: 2 mM
compound,measurement,setting,value
COc1cc2/c(=N/c3ccc(Br)cc3F)nc[nH]c2cc1OCC1CCN(C)CC1 [Vandetanib (ZD6474)],percent Bodipy-positive cells,[1],99.1 ± 1.2%
COc1cc2/c(=N/c3ccc(Br)cc3F)nc[nH]c2cc1OCC1CCN(C)CC1 [Vandetanib],percent Bodipy-positive cells,[2],14.4 ± 1.5%
same,percent Bodipy-positive cells,[3],43.8 ± 9.2%
"COc1cc2/c(=N/c3ccc(Br)cc3F)nc[nH]c2cc1OCC1CCN(C)CC1 [Vandetanib  (ZD6474, Zactima) (10 mM)]",percent Bodipy-positive cells,[1],98.6 ± 2%
C/C(=C(\CCOP(=O)(O)O)SC(=O)c1ccccc1)N(C=O)Cc1cnc(C)nc1N [Benfotiamine],percent Bodipy-positive cells,,9.77 ± 3.9%
same,percent Bodipy-positive cells,[1],27.9 ± 5.8%
Nc1ccc2cn[nH]c2c1,percent Bodipy-positive cells,[1],5.39 ± 0.2%
Cc1cc(OCCCS(C)(=O)=O)cc(C)c1-c1cccc(COc2ccc3c(c2)OC[C@H]3CC(=O)O)c1,percent Bodipy-positive cells,[4],14.3 ± 0.65%
same,percent Bodipy-positive cells,[1],51.7 ± 25%
O=C(CCCCCN1C(=O)c2cccc3cccc(c23)C1=O)NO [Scriptaid],percent Bodipy-positive cells,[4],60.7 ± 2.4%
C=C[C@@]1(C)CC(=O)[C@]2(O)[C@@]3(C)[C@@H](O)CCC(C)(C)[C@@H]3[C@H](O)[C@H](OC(C)=O)[C@@]2(C)O1 [Forskolin],percent Bodipy-positive cells,[4],10.7 ± 2%
same,percent Bodipy-positive cells,library stock concentration: 12.2 mM,11.2 ± 8.6%
C=C[C@@]1(C)CC(=O)[C@]2(O)[C@@]3(C)[C@@H](O)CCC(C)(C)[C@@H]3[C@H](O)[C@H](OC(C)=O)[C@@]2(C)O1 [Colforsin],percent Bodipy-positive cells,library stock concentration: 4.9 mM,12.3 ± 2%
same,percent Bodipy-positive cells,[1],41.4 ± 6.1%
CN(Cc1cnc2nc(N)nc(N)c2n1)c1ccc(C(=O)NC(CCC(=O)O)C(=O)O)cc1 (racemic) [Methotrexate(+/-)],percent Bodipy-positive cells,library stock concentration: 4.4 mM,5.75 ± 0.61%
same,percent Bodipy-positive cells,[1],15 ± 6.4%
NC(=O)N1C(=O)/C(=C(\O)c2cccs2)c2cc(Cl)ccc21 [Tenidap],percent Bodipy-positive cells,[1],6.3 ± 2.2%
CCN(CC)CCOC(=O)C(Cc1cccc2ccccc12)CC1CCCO1 (stereo unspecified) [Nafronyl oxalate],percent Bodipy-positive cells,,49.3 ± 1.4%
same,percent Bodipy-positive cells,[1],38.6 ± 25%
CC1(C)S[C@@H]2[C@H](NC(=O)C(C(=O)O)c3ccccc3)C(=O)N2[C@H]1C(=O)O (stereo partly specified) [Carbenicillin disodium],percent Bodipy-positive cells,[4],13.8 ± 5.1%
same,percent Bodipy-positive cells,library stock concentration: 4.7 mM,3.3 ± 0.17%
same,percent Bodipy-positive cells,[1],32.8% and 12.4%
COc1ccc(-c2nc(-c3ccc(-c4cccc(Cl)c4)o3)[nH]c2-c2ccc(OC)cc2)cc1 [Neurodazine],percent Bodipy-positive cells,[5],52.5 ± 0.96%
same,percent Bodipy-positive cells,[1],15.5 ± 2.3%
CC/C=C\C/C=C\C/C=C\C/C=C\C/C=C\CCCC(=O)O[C@H](COCCCCCCCCCCCCCCCC)COP(=O)([O-])OCC[N+](C)(C)C [Eicosapentaenoyl PAF C-16],percent Bodipy-positive cells,[5],15.6 ± 2.5%
C[C@H](N)[C@H](O)c1cccc(O)c1 [Metaraminol bitartrate],percent Bodipy-positive cells,,30.1 ± 7.6%
same,percent Bodipy-positive cells,library stock concentration: 6.3 mM,28.4 ± 24%
same,percent Bodipy-positive cells,[1],37.9 ± 6.3%
COc1ccc(C(=O)/C(Br)=C\C(=O)O)cc1 [Bromebric acid],percent Bodipy-positive cells,library stock concentration: 7 mM,8.69 ± 5.3%
CCN(CC)CCNC(=O)c1c(C)[nH]c(/C=C2\C(=O)Nc3ccc(F)cc32)c1C.O=C(O)C[C@H](O)C(=O)O,percent Bodipy-positive cells,[6],100%
CCOC(=O)C1=C(COCCN)NC(C)=C(C(=O)OC)C1c1ccccc1Cl.O=S(=O)(O)c1ccccc1 (stereo unspecified) [Amlodipine besylate],percent Bodipy-positive cells,[1],87.4 ± 0.94%
CCCCCC(=O)/C=C/[C@@H]1[C@H](C/C=C\CCCC(=O)O)[C@H](O)C[C@H]1O [8-iso-15-keto Prostaglandin F2.beta.],percent Bodipy-positive cells,[5],8.73 ± 2.4%
"CCCCCCC(=O)SC[C@H](COP(=O)([O-])OCC[N+](C)(C)C)SC(=O)CCCCCC [1,2-bis(heptanoylthio) Glycerophosphocholine]",percent Bodipy-positive cells,[5],8.62 ± 1.9%
Cc1ccccc1OCC(O)CO (stereo unspecified) [Mephenesin],percent Bodipy-positive cells,,23.3 ± 2.1%
same,percent Bodipy-positive cells,[1],31.7 ± 15%
same,percent Bodipy-positive cells,library stock concentration: 11 mM,22.8 ± 3.9%
COc1cc(N2CCN(C)CC2)ccc1Nc1nc(N)c(C(=O)c2c(Cl)cccc2Cl)s1,percent Bodipy-positive cells,[2],18.1 ± 2.9%
same,percent Bodipy-positive cells,[3],14.4 ± 5.2%
same,percent Bodipy-positive cells,[6],29.7 ± 3.6%
same,percent Bodipy-positive cells,[1],79.2 ± 5.4%
CC1=C(CC(=O)O)c2cc(F)ccc2/C1=C\c1ccc(S(C)(=O)=O)cc1 [Sulindac sulfone],percent Bodipy-positive cells,[1],11.5 ± 8.9%
CC(C)N(CCCNC(=O)Nc1ccc(C(C)(C)C)cc1)C[C@H]1O[C@@H](n2cc(Br)c3c(N)ncnc32)[C@H](O)[C@@H]1O,percent Bodipy-positive cells,[4],61.5 ± 7.3%
CS(=O)(=O)c1ccc(-c2cc(Br)sc2-c2ccc(F)cc2)cc1,percent Bodipy-positive cells,[5],16.4 ± 15%
same,percent Bodipy-positive cells,[1],10.4% and 7.87%
O=C1CN(/N=C/c2ccc([N+](=O)[O-])o2)C(=O)N1,percent Bodipy-positive cells,[1],31.4 ± 14%
O=C1CN(/N=C/c2ccc([N+](=O)[O-])o2)C(=O)N1 [Nitrofurantoin],percent Bodipy-positive cells,,27 ± 3.6%
same,percent Bodipy-positive cells,[1],7.46 ± 3.3%
Cc1nc2sccn2c(=O)c1CCN1CCC(=C(c2ccccc2)c2ccc(F)cc2)CC1,percent Bodipy-positive cells,[2],11.1 ± 0.89%
same,percent Bodipy-positive cells,[3],13.3 ± 0.84%
same,percent Bodipy-positive cells,[6],12.7 ± 1.1%
same,percent Bodipy-positive cells,[1],44.5% and 20%
OCCN1CCN(CCCN2c3ccccc3Sc3ccc(Cl)cc32)CC1,percent Bodipy-positive cells,[1],94.8 ± 1.7%
O=C(NCCCNc1nc(Nc2cccc(NC(=O)N3CCCC3)c2)ncc1I)c1cccs1,percent Bodipy-positive cells,[1],94.8 ± 1%
CC(C)(C)C(=O)C(Oc1ccc(Cl)cc1)n1ccnc1 (stereo unspecified) [Climbazole],percent Bodipy-positive cells,[4],14.5 ± 4.5%
same,percent Bodipy-positive cells,library stock concentration: 6.8 mM,7.08 ± 2.1%
same,percent Bodipy-positive cells,[1],38 ± 2.1%

# An excerpt of these results, with tabs.
compound	measurement	setting	value
O=C(CCCCCN1C(=O)c2cccc3cccc(c23)C1=O)NO [Scriptaid]	percent Bodipy-positive cells	[4]	60.7 ± 2.4%
CC1(C)S[C@@H]2[C@H](NC(=O)C(C(=O)O)c3ccccc3)C(=O)N2[C@H]1C(=O)O (stereo partly specified) [Carbenicillin disodium]	percent Bodipy-positive cells	library stock concentration: 4.7 mM	3.3 ± 0.17%
CS(=O)(=O)c1ccc(-c2cc(Br)sc2-c2ccc(F)cc2)cc1	percent Bodipy-positive cells	[1]	10.4% and 7.87%
Cc1nc2sccn2c(=O)c1CCN1CCC(=C(c2ccccc2)c2ccc(F)cc2)CC1	percent Bodipy-positive cells	[6]	12.7 ± 1.1%
O=C(NCCCNc1nc(Nc2cccc(NC(=O)N3CCCC3)c2)ncc1I)c1cccs1	percent Bodipy-positive cells	[1]	94.8 ± 1%
